Results deposited as PubChem BioAssay AID1224830 (NIAID, 2016).

Test: 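Host factors that control LPS-induced TNF expression in human macrophages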 (primary screen)
Cells: human THP-1 monocytic leukaemia cells, TNF dual-luciferase reporter clone, PMA-differentiated to macrophage-like cells
Reagent: siRNA pool against human genes, 50 nM
Time to read-out: LPS for 4 h, given about 3 days after siRNA transfection
Challenge: bacterial LPS (TLR4 ligand), 10 ng/ml
Measured: 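Ratio of firefly to renilla light, scaled to the plate median and expressed as a robust z-score per replicate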
Direction: TNF reporter robust z-score: higher = stronger TNF reporter response to LPS
Call rule: 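a well is active when its z-score exceeds 2.8 or falls below -1.5; control wells carry no call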
The whole screen tested about 18,000 reagents; shown is a random part of them. Of all reagents, about 2,900 (16%) are marked active. 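Calls are made per well; low scores hint the gene aids the LPS response, high scores that it dampens it.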 A number with no mark means an inactive call. Repeated entries: four replicate wells of each siRNA pool. Reagent sequences are not shown.

With ERMAP, how do the results read?
TNF reporter robust z-score: -0.62

For ERMAP, what does the deposit list?
TNF reporter robust z-score: 1.03

What did the screen give for ERMAP?
TNF reporter robust z-score: 0.04

How did the screen score ERMAP?
TNF reporter robust z-score: 0.45

What did the screen give for SRSF1?
TNF reporter robust z-score: -1.54 (active)

What did the screen give for SRSF1?
TNF reporter robust z-score: -0.69

Which result is listed for SRSF1?
TNF reporter robust z-score: -1.58 (active)

With SRSF1, what was measured?
TNF reporter robust z-score: -1.37

With PLXNA2, what was measured?
TNF reporter robust z-score: -0.72

What is on record for PLXNA2?
TNF reporter robust z-score: 0.32

For PLXNA2, what does the deposit list?
TNF reporter robust z-score: -1.36

What is on record for PLXNA2?
TNF reporter robust z-score: 0.47

For FAM184A, what was measured?
TNF reporter robust z-score: 0.23

With FAM184A, what does the deposit list?
TNF reporter robust z-score: 0.42

With FAM184A, how do the results read?
TNF reporter robust z-score: -0.11

What is on record for FAM184A?
TNF reporter robust z-score: -0.22

With PGAP6, what does the deposit list?
TNF reporter robust z-score: 0.01

What did the screen give for PGAP6?
TNF reporter robust z-score: -0.39

For PGAP6, how do the results read?
TNF reporter robust z-score: -0.49

With PGAP6, what does the deposit list?
TNF reporter robust z-score: 0.48

What did the screen give for GDAP1?
TNF reporter robust z-score: 1.4

With GDAP1, what does the deposit list?
TNF reporter robust z-score: 0

For GDAP1, what was measured?
TNF reporter robust z-score: 1.16

What is on record for GDAP1?
TNF reporter robust z-score: 1.98

With EBI3, what does the deposit list?
TNF reporter robust z-score: -1.1

With EBI3, what does the deposit list?
TNF reporter robust z-score: -1.72 (active)

For EBI3, how do the results read?
TNF reporter robust z-score: -0.87

What did the screen give for EBI3?
TNF reporter robust z-score: -1.08

For CD2, how do the results read?
TNF reporter robust z-score: -0.38

With CD2, what does the deposit list?
TNF reporter robust z-score: -0.21

Which result is listed for CD2?
TNF reporter robust z-score: -0.34

Which result is listed for CD2?
TNF reporter robust z-score: 0.06

What did the screen give for TRMT1L?
TNF reporter robust z-score: -1.03

For TRMT1L, what was measured?
TNF reporter robust z-score: 0.17

Which result is listed for TRMT1L?
TNF reporter robust z-score: -0.98

With TRMT1L, how do the results read?
TNF reporter robust z-score: -0.27

Which result is listed for COL2A1?
TNF reporter robust z-score: 0.3

For COL2A1, what does the deposit list?
TNF reporter robust z-score: 0.45

For COL2A1, what was measured?
TNF reporter robust z-score: 0.97

Records above with an active call:
SRSF1 | TNF reporter robust z-score: -1.54 (active)
SRSF1 | TNF reporter robust z-score: -1.58 (active)
EBI3 | TNF reporter robust z-score: -1.72 (active)

Next records follow:
What is on record for XKR8?
TNF reporter robust z-score: -0.55

What did the screen give for XKR8?
TNF reporter robust z-score: 0.01

With XKR8, what was measured?
TNF reporter robust z-score: 0

For PDZD9, what was measured?
TNF reporter robust z-score: -0.61

For PDZD9, what was measured?
TNF reporter robust z-score: -0.48

What did the screen give for PDZD9?
TNF reporter robust z-score: 0.09

For PDZD9, how do the results read?
TNF reporter robust z-score: -0.32

With AKAP3, how do the results read?
TNF reporter robust z-score: 0.23

With AKAP3, what was measured?
TNF reporter robust z-score: 0.43

With AKAP3, how do the results read?
TNF reporter robust z-score: 0.91

What is on record for AKAP3?
TNF reporter robust z-score: 0.41

With HEPACAM2, how do the results read?
TNF reporter robust z-score: 2.01

For HEPACAM2, what was measured?
TNF reporter robust z-score: 0.87

With HEPACAM2, how do the results read?
TNF reporter robust z-score: -0.4

What is on record for HEPACAM2?
TNF reporter robust z-score: 1.27

What did the screen give for CCL15?
TNF reporter robust z-score: -1.44

What is on record for CCL15?
TNF reporter robust z-score: -0.87

Which result is listed for CCL15?
TNF reporter robust z-score: -0.27

For CCL15, how do the results read?
TNF reporter robust z-score: -0.77

With AFAP1, what does the deposit list?
TNF reporter robust z-score: 0.57

Which result is listed for AFAP1?
TNF reporter robust z-score: 0.84

How did the screen score AFAP1?
TNF reporter robust z-score: -0.42

For AFAP1, what does the deposit list?
TNF reporter robust z-score: 0.54
